Laboratory results reported in patent US20070065878A1.
These are yes or no findings as the source states them, for the method shown. Some results given as binding are weak or reduced against the parent protein; the word gives no strength.

Target: T1, streptavidin-binding peptide (…)
T1 sequence (peptide): WCHPMWEVMCLR
Assay: flow cytometry labeling of E. coli displaying the dual-signal CPX scaffold, SAPE 50 nM

- binding: binds
Substance: Streptavidin-conjugated phycoerythrin (from UniProt P22629 37-163)
